Test results taken from publication PMC5501531.
Where two headings read alike, the source gives them in different places. Results are given in words; binding and its absence hold for the method and conditions named. Binding seen in cells or lysates may run through a third protein. Some binding calls cover weakened binding; strength is not graded here. Where a sequence is shown, tags or fusion partners need not be part of it.

Protein sequences, listed by entry. Tags and fused reporters are not part of them.
UniProt Q39026: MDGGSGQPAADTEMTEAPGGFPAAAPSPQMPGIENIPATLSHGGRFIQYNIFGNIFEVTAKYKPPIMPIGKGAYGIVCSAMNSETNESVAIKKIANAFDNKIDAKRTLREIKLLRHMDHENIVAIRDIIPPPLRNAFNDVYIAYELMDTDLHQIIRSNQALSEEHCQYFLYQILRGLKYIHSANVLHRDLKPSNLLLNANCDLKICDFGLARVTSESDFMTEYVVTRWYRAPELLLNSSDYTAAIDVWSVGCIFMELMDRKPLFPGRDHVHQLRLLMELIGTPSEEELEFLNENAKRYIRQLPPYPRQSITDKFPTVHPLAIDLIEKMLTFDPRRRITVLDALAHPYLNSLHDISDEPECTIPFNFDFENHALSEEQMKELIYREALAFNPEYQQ

How the values were obtained:
[1] = biological target: T1, YFPc-HD2B (histone deacetylase HD2B fused to the C-terminal fragment of yellow fluorescent protein) (Arabidopsis thaliana) (UniProt Q56WH4); assay: split reporter; BiFC with split YFP in epidermal cells of Agrobacterium-infiltrated Nicotiana benthamiana leaves; YFP fluorescence read after three days by confocal microscopy; empty vectors as controls
T1 sequence: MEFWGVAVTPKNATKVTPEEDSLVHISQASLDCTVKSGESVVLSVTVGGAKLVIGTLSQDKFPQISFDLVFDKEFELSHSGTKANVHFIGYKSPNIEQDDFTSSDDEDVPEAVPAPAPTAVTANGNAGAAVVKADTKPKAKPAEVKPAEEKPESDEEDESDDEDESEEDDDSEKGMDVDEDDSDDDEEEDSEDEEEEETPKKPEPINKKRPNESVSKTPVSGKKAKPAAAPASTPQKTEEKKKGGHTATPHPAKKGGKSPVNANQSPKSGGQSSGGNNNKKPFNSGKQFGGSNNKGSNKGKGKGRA

[2] = biological target: T1, YFPc-HD2B (histone deacetylase HD2B fused to the C-terminal fragment of yellow fluorescent protein) (Arabidopsis thaliana); assay: as above; remark: listed apart in the source
[3] = biological target: T2, HD2B-c-Myc (Arabidopsis thaliana) (UniProt Q56WH4); assay: co-IP; protein extracts of protoplasts transiently expressing HD2B-c-Myc and MPK3-HA; immunoprecipitated with anti-c-Myc antibody on protein A-Sepharose, blotted with anti-c-Myc or anti-HA; 50 mM Tris-HCl pH 7.8, 150 mM NaCl, 1 mM EDTA, 0.1% NP-40
T2 sequence: T1 sequence

[4] = biological target: T3, GFP-HD2B (p35S::GFP-HD2B) (Arabidopsis thaliana) (UniProt Q56WH4); assay: co-IP; leaf lysate of transgenic plants expressing both GFP-HD2B and MPK3-c-Myc; immunoprecipitated with anti-GFP (and anti-c-Myc) antibody, Protein A/G resin, blotted with anti-c-Myc; 50 mM Tris-HCl pH 8.0, 0.5% NP-40, 200 mM NaCl
T3 sequence: T1 sequence

Molecule: MPK6 (BiFC fusion) (from UniProt Q39026 1-395) (enzyme)
- binding [1]: binds

B1: YFPn-MPK3 (MAP kinase MPK3 fused to the N-terminal fragment of yellow fluorescent protein) (enzyme, UniProt Q39023 1-370)
chain: MNTGGGQYTDFPAVETHGGQFISYDIFGSLFEITSKYRPPIIPIGRGAYGIVCSVLDTETNELVAMKKIANAFDNHMDAKRTLREIKLLRHLDHENIIAIRDVVPPPLRRQFSDVYISTELMDTDLHQIIRSNQSLSEEHCQYFLYQLLRGLKYIHSANIIHRDLKPSNLLLNANCDLKICDFGLARPTSENDFMTEYVVTRWYRAPELLLNSSDYTAAIDVWSVGCIFMELMNRKPLFPGKDHVHQMRLLTELLGTPTESDLGFTHNEDAKRYIRQLPNFPRQPLAKLFSHVNPMAIDLVDRMLTFDPNRRITVEQALNHQYLAKLHDPNDEPICQKPFSFEFEQQPLDEEQIKEMIYQEAIALNPTYG
- binding [2]: binds

B2: MPK3-HA (enzyme, UniProt Q39023 1-370)
chain: B1 chain
- binding [3]: binds

B3: MPK3-c-Myc (p35S::MPK3-c-Myc) (enzyme, UniProt Q39023 1-370)
chain: B1 chain
- binding [4]: binds
